A short description of this data set: peptide made by a vendor. The settings on record: whole synthesis.

Some peptides are written in HELM: one residue between dots, names in brackets for other building blocks, links after the first $.

For the substance PEPTIDE1{I.M.A.V.L.A.I.V.L}$$$$V2.0, the outcome is given as “IMAVLAIVL could not be synthesized due to the presence of too many hydrophobic amino acid residues”.

These data come from article PMC9785712 (2022).
